{"source": "patent US8722052B2", "about": "“Vaccinia virus protein A46 peptide and use thereof” (priority 2008, dated 2014)", "key": {"[1]": {"system": "TLRs", "experiment": "TLR responses in every cell type and TLR pathway tested", "assay_type": "cell-based"}, "[2]": {"system": "TLR4", "experiment": "LPS-induced TNFα in primary human PBMC, ELISA", "assay_type": "cell-based", "details": "peptide 1, 5 or 25 μM 1 h before 10 ng/ml LPS, 6 h", "procedure": "FIGS. 13A and B are bar charts showing the effect of A467 and A464 on LPS-induced TNFα production and on cell viability in primary human cells. Peripheral blood mononuclear cells (PBMCs) were seeded in 96 well plates (1 ×10^6 cells/ml) 24 hours before treatment. A467 (SEQ ID NO. 23) and A464 (SEQ ID NO. 20) were added to the cells at 1, 5 and 25 μM 1 hour before stimulating with 10 ng/ml LPS. The peptides were added into the unstimulated control wells at 25 μM. Supernatants were collected 6 hours after stimulation and assayed for TNFα production by ELISA (A). The cells were assayed for viability by the MTT assay (B). No peptides were added to the control wells (black bars). Data is representative of at least three experiments each performed in triplicate and is expressed as mean±s.d;\nFIGS. 14A and B are bar charts showing the comparison of the inhibitory effect of the L- and D-forms of A464 on LPS-induced TNFα in primary human and murine cells. […] Data is representative of at least three experiments each performed in triplicate and is expressed as mean±s.d;\nFIGS. 15A and B are bar charts showing the effect of the D-form A464 peptide with the TAT delivery sequence on LPS induced TNFα in primary human and murine cells. […] Data is representative of at least three experiments each performed in triplicate and is expressed as mean±s.d; […]"}}, "note": "“Also recorded” adds a separate entry of the source. At least one peptide structure holds a part that was inferred or is arguable (an end, a ring closure or a residue). Ends that are not written are not given here."}
{"sequence": "RNTISGNIYSARRRRRRRRR [Peptide A467]", "values": [{"measurement": "activity towards TLRs (control peptide)", "setting": "[1]", "result": "not to be inhibitory; also recorded: inert towards TLRs in every cell type and TLR pathway tested"}, {"measurement": "inhibition of LPS-induced hTNFα production", "setting": "[2]", "result": "no effect at any dose"}]}
